{
  "source": "paper PMC12667515",
  "target": "T1, 3×FLAG‐tagged TGB1 (TGB1–3×Flag), triple gene block 1 protein of barley stripe mosaic virus (barley stripe mosaic virus) (UniProt P04867)",
  "T1 sequence": "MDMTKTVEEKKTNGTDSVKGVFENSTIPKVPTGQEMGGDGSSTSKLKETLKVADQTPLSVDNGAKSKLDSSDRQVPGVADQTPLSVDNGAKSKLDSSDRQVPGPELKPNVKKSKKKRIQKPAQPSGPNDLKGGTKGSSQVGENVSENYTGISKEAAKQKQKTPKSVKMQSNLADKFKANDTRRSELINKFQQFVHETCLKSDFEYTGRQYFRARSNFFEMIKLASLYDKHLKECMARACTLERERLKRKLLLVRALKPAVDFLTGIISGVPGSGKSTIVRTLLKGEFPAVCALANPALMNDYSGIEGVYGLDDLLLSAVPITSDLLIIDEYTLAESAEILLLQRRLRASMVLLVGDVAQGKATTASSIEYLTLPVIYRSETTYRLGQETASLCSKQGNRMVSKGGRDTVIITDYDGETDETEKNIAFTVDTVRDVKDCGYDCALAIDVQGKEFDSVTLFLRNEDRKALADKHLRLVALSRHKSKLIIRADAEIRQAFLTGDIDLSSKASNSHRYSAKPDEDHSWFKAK",
  "test": "affinity purification with mass spectrometry; TGB1–3×Flag as bait, transiently expressed in N. benthamiana leaves; immunoprecipitation, then liquid chromatography–tandem mass spectrometry",
  "note": "These are yes or no findings as the source states them, for the method shown. In cells and extracts the contact can be indirect. A yes stands for co-enrichment or nearness to the bait. Other partners may have been found. Sequences can lack the tags named with a protein.",
  "data": [
    {"substance": "Ariadne‐like protein 8 (ARI8), endogenous in N. benthamiana (enzyme)", "values": [
      {"measurement": "binding", "result": "binds"}
    ]}
  ]
}
